Data from PubChem BioAssay AID2685 (National Center for Advancing Translational Sciences (NCATS), 2010).
In all, about 320,000 compounds went through this assay and about 2,100 (0.66%) were called active. Inconclusive means that the source gave no clear call. Such entries were picked first, then a sample of the others. Calls follow the shape of the dose curve; as a rule, active = well fitted inhibition curve with a large enough effect in the signal ratio, with a control signal flat (not every such curve was filed as active); inconclusive = small, poorly fitted or top-dose-only effect, or effect the other way, or a change in a side signal; inactive = flat fitted curve, though single readings scatter; the % refers to the signal ratio. Potencies of inconclusive entries are doubtful fits and often do not repeat.

Test: qHTS Assay for Lipid Storage Modulators in Drosophila S3 Cells
Conditions: BODIPY lipid droplet fluorescence, 18-24 h, cells fed with added oleic acid; lipid storage change, negative = inhibition: at 46.1 µM (top of the series) unless noted
How it was run: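 Drosophila S3 cells loaded with oleic acid (400 uM, as added) and compounds at several concentrations; lipid droplets imaged by 488-nm laser-scanning cytometry, 500–530 nm intensity and object ratio to cell channel. Percent activity normalized to 20 uM Triacsin C.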
% is scaled to controls: 0 for no effect and ±100 for the full control effect; potency is read from the fitted curve at half-maximal effect.

Row | Compound | Potency | lipid storage change, negative = inhibition | outcome
1 | Cc1ccc(OCC(O)CN2CCc3ccccc3C2)c(C)c1 (stereo unspecified) | inconclusive: 23100 nM [activator, single point] |  | 
2 | CCOC(=O)c1cccc(NC(=O)COc2ccc([N+](=O)[O-])cc2)c1 |  | inconclusive: -7.23% | 
3 | Cc1ccsc1C(=O)Nc1nc2ccccc2[nH]1 | inconclusive: 517 nM [falling, single point] |  | 
4 | CCOc1ccc(-c2nc3n(c(=O)c2C#N)CCCS3)cc1 | inconclusive: 920 nM [activator, partial curve] |  | 
5 | CCOC(=O)N1CCN(C(=O)c2ccc3c(SCC(=O)O)c4c(nc3c2)CCC4)CC1 |  | inconclusive: 88.9% | 
6 | CCOC(=O)C(Oc1ccc2c(-c3ccccc3)cc(=O)oc2c1)c1ccccc1 (stereo unspecified) | inconclusive: 6510 nM [rising, partial curve] |  | 
7 | CC(C)NC(=O)N1CCC(c2nc3ccccc3s2)CC1 |  | inconclusive: 21.3% | 
8 | CCOc1ccc(C(=O)NC(C)CCc2ccccc2)cc1 (stereo unspecified) | inconclusive: 29100 nM [falling, single point] |  | 
9 | COc1ccc(C(=O)N/N=C/C2CC=CCC2)cc1OC (stereo unspecified) |  | inconclusive: -7.75% | 
10 | CCCCCN(C(=O)CCC(=O)OC(C)C(=O)c1ccccc1)c1c(N)n(CCCC)c(=O)[nH]c1=O (stereo unspecified) |  | inconclusive | 
11 | O=[N+]([O-])c1ccc(N/N=C/c2ccccc2)c(F)c1 |  | inconclusive: -14.3% | 
12 | O=C(COC(=O)c1ccc([N+](=O)[O-])s1)Nc1ccc(F)cc1 | inconclusive: 20.6 nM [falling, full curve] |  | 
13 | CSc1ncc(C(=O)Nc2ccccc2)cn1 | inconclusive: 231 nM [activator, full curve] |  | 
14 | CC(C)(C)NC(=O)c1cnn(-c2ccccc2)c1NC(=O)c1ccccc1 | inconclusive: 651 nM [falling, full curve, poor fit] |  | 
15 | CC1(C)C(=O)OC(c2cccc([N+](=O)[O-])c2)C2(CCCCC2)C1=O (stereo unspecified) |  | inconclusive: -13.6% | 
16 | CC(C)(C)OC(=O)N1CCC(CC2CC(c3ccccc3)=NO2)(C(=O)NCc2ccccc2)CC1 (stereo unspecified) |  | inconclusive: 8.39% | 
17 | CSCc1c(C(=O)NC2CCCc3ccccc32)oc2ccccc12 (stereo unspecified) |  | inconclusive: 45.7% | 
18 | CCc1cc2c(-c3ccccc3)cc(=O)oc2cc1OC(C)C(=O)NCC1CCC(C(=O)O)CC1 (stereo unspecified) |  |  | inactive [at 46.1 µM]
19 | O=C(CCc1ccccc1)NNC(=O)c1ccc(NC(=O)c2ccccc2)cc1 |  | inconclusive: 54.5% | 
20 | CN(Cc1nc(-c2ccc(Cl)cc2)no1)C(=O)CCN1C(=O)[C@H]2CC=CC[C@H]2C1=O |  | inconclusive: 10.7% | 
21 | CC1CCCN(C(=O)CN2C(=O)C(C)Oc3ccccc32)C1 (stereo unspecified) |  | inconclusive: -59.6% | 

2 entries from above in a different format.
Row	Compound	Potency	lipid storage change, negative = inhibition	outcome
13	CSc1ncc(C(=O)Nc2ccccc2)cn1	inconclusive: 231 nM [activator, full curve]		
14	CC(C)(C)NC(=O)c1cnn(-c2ccccc2)c1NC(=O)c1ccccc1	inconclusive: 651 nM [falling, full curve, poor fit]		
